Measurements: PMC9054013, “FCHO controls AP2’s initiating role in endocytosis through a PtdIns(4,5)P2-dependent switch” (Science Advances, 2022)
Results are given in words; binding and its absence hold for the method and conditions named. Some results given as binding are weak or reduced against the parent protein; the word gives no strength. For some of these results: Sequences can lack the tags named with a protein.

The chains behind the UniProt entries cited, without tags or fusion partners. Where a name states a change or a piece, a line headed by the entry shows the natural chain unless it says otherwise. A line that says so, or that is headed by a name, gives the form on record, which may keep a tag or linker. Residues count along the entry.
GST-FCHO2 linker wt (residues 314 to 444) (Q0JRZ9, residues 314-444): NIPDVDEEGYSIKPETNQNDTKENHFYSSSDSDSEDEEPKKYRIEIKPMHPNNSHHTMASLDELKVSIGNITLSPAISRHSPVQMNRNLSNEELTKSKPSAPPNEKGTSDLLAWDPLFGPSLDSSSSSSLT
GST-FCHO2 phosphomimetic linker (residues 314 to 444) (Q0JRZ9, form named): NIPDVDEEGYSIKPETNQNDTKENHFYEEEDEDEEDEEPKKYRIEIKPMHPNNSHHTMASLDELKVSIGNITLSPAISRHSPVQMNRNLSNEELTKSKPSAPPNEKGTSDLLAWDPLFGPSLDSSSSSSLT
His6-MBP-Cμ2 wt (μ2 residues 160 to 435) (P84092, residues 160-435): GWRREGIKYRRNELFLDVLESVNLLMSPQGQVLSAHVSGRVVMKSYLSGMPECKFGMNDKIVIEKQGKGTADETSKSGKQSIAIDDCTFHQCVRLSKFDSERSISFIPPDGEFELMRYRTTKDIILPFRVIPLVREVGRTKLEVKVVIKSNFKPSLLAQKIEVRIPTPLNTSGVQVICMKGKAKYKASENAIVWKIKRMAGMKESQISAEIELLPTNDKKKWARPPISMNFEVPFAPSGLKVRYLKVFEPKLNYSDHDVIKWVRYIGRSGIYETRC
His6-MBP-Cμ2 BR4 mutant (K339A/K341A/K343A/K345A) (P84092, form named): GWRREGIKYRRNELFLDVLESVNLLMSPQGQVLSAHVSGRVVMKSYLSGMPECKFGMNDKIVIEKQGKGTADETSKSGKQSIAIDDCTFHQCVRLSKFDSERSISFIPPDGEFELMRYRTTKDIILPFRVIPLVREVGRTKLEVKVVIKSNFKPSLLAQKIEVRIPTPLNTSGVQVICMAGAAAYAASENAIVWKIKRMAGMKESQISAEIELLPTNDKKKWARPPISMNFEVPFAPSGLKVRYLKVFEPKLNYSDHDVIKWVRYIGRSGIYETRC

Key:
Experiment in all cases: pull-down; GST or GST-fusion protein immobilised on GSH Sepharose; recombinant AP2 core or His6-MBP-Cμ2 added; supernatant and pellet by SDS-PAGE, Coomassie or anti-μ2 blot; near-physiological conditions; both purified
[1] = biological target: GST-FCHO2 phosphomimetic linker (residues 314 to 444) (human) (UniProt Q0JRZ9)
[2] = biological target: GST-FCHO2 linker wt (residues 314 to 444) (human) (UniProt Q0JRZ9)
[3] = biological target: T1, GST-SERINC3-L10 (residues 354 to 404) (UniProt Q13530)
T1 sequence: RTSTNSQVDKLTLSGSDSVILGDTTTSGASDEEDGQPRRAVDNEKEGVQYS

Row | binding [1] | binding [2] | binding [3] | Substance
1 | binds |  |  | His6-MBP-Cμ2 BR4 mutant (K339A/K341A/K343A/K345A) (from UniProt P84092 160-435) (domain or fragment)
2 | binds | binds | binds | His6-MBP-Cμ2 wt (μ2 residues 160 to 435) (from UniProt P84092 160-435) (domain or fragment)
